“And” between values parts separate entries of the source, which are not always exact repeats. Equal entries are not always repeated. The source gives many values for each of these; only a part stands here.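 Plates (96-well) were seeded with cells, treated with compound at one concentration, and incubated for 48 hours before percent growth was determined.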
Tested on: XF 498 CNS
Experiment: NCI-60 one-dose screen, 48 h (100 = growth as untreated, 0 = no growth, -100 = all killed)
Details: 2.5 mM
Procedure: Growth inhibition of the XF 498 human tumor cell line is measured as a screen for anti-cancer activity. Cells are grown in 96 well plates and exposed to the test compound for 48 hours. Compounds are tested at a single concentration, which is 10^-5 M for most compounds. The reported endpoint is percent growth (GI% or GIPRCNT), where numbers from 0 - 100% represent growth inhibition, and numbers from -100% - 0 represent cell death. For example, a value of 40 represents 60% growth inhibition. A value of 0 means no net growth occurred over the course of the experiment. A value of -40 indicates 40% of cells at the beginning of the experiment died by the end of the experiment. A value of -100 means all cells are dead at the end of the experiment.
NCI-60 Human Tumor Cell Lines Screen was performed using the standard one-dose NCI protocol, which is described in more detail at https://dtp.cancer.gov/discovery_development/nci-60/default.htm.
Compounds with GIPRCNT values below 10 were considered active. Activity score was based on GIPRCNT using the following formula: […]
Score is 0 for GIPRCNT values of 100 or above, 50 for GIPRCNT values of 0, and 100 for GIPRCNT values of -100.

O=c1[nH]cc(F)c(=O)[nH]1
growth: -5.84% and -10.1% and -40.7%

Source: PubChem BioAssay AID1794749 (DTP/NCI, 2022)
